Numbering of substitutions follows the chain as printed. No constants are given. Whether binding was seen depends on the method and setting. Some entries that bind do so weakly or less than the wild type.
Experiments:
[1] = biological target: cDPEP3 (Macaca fascicularis) (UniProt Q4R7M2); assay: ELISA, coated antigen, antibody 1 ug/mL
mDPEP3 = biological target: T1, mDPEP3; assay: ELISA, coated antigen, antibody 1 ug/mL
T1 sequence (single chain): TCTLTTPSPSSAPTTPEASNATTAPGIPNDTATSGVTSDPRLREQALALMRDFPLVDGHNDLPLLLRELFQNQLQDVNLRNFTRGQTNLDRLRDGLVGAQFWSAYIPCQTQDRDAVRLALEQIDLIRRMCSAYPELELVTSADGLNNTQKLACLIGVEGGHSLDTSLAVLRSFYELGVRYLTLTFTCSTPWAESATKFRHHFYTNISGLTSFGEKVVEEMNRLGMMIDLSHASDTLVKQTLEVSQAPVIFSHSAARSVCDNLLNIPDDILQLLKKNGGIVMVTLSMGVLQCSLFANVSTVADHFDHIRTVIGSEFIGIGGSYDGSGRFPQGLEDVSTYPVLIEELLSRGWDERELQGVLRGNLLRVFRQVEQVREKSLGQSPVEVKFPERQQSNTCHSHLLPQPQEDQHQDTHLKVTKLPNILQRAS

By UniProt entry, the sequences of proteins in these tests, tags left out. Where a name states a change or a piece, a line headed by the entry shows the natural chain unless it says otherwise. Residues count along the entry.
UniProt Q4R7M2, residues 36-463: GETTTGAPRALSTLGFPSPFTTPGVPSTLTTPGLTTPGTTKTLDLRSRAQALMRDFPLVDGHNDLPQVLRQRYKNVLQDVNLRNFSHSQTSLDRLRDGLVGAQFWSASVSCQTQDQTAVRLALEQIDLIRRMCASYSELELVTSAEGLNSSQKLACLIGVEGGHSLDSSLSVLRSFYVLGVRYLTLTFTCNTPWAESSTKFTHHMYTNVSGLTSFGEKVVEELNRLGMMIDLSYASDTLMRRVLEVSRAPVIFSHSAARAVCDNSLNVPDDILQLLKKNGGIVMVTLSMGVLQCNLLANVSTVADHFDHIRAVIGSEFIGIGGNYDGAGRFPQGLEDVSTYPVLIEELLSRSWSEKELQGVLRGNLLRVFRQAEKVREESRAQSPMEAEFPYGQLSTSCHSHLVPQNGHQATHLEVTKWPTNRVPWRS
UniProt Q5U2X4: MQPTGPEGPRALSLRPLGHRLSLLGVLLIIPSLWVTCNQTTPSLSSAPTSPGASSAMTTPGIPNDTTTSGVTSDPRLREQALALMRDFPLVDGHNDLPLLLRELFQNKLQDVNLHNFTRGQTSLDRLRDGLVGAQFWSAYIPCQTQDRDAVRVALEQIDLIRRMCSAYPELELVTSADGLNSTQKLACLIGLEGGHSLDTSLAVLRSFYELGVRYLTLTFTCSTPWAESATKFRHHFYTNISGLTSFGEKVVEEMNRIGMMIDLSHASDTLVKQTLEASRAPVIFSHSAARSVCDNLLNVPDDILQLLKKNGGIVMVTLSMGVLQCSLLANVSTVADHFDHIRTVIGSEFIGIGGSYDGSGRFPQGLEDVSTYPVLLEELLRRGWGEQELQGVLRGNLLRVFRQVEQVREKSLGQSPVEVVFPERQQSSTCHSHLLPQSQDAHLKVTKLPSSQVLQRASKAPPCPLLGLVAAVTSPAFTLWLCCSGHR
UniProt Q9H4A9: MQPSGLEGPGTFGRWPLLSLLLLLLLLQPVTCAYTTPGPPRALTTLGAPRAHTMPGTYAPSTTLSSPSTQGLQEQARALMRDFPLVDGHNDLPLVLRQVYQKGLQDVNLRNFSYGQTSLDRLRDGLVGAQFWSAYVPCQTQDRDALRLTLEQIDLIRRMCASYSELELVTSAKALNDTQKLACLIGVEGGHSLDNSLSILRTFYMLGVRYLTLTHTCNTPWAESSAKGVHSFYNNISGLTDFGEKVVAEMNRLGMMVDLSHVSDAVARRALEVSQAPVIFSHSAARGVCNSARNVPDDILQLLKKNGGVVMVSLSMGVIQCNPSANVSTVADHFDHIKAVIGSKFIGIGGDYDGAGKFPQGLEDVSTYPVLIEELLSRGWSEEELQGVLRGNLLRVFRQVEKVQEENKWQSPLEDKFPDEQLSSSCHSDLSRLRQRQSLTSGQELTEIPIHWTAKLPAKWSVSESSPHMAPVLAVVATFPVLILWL

[2] = biological target: rat DPEP3 ECD with histidine tag (rat) (UniProt Q5U2X4); assay: ELISA, coated antigen, antibody 1 ug/mL
[3] = biological target: T2, human DPEP3 (hDPEP3) protein on the cell surface (human) (UniProt Q9H4B8); assay: flow cytometry, HEK-293T cells overexpressing hDPEP3
T2 sequence (chain, GPI anchor at the C-terminus after removal of the final 25 amino acids): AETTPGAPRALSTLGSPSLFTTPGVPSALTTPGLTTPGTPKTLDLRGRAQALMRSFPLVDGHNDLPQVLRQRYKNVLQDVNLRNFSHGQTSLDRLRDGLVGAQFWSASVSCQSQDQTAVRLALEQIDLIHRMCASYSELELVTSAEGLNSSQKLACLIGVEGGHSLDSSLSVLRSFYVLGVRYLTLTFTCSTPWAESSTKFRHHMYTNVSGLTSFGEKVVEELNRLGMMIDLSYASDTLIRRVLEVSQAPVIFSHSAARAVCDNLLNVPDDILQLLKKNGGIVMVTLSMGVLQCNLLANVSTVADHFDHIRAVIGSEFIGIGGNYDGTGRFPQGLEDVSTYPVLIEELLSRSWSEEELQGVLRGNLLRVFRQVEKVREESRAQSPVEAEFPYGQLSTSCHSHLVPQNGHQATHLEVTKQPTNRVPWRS

[4] = biological target: T2, human DPEP3 (hDPEP3) protein on the cell surface (human); assay: immunohistochemistry on a tissue microarray of primary patient ovarian tumors
hDPEP3-ECD-His (human) = hDPEP3-ECD-His (human) (UniProt Q9H4B8); assay: IHC competition, antibody mixed with a 5x molar excess of hDPEP3-His before staining
[5] = biological target: T2, human DPEP3 (hDPEP3) protein on the cell surface (human); assay: immunohistochemistry, tissue microarray of primary ovarian tumors, cellular H-score
[6] = biological target: T2, human DPEP3 (hDPEP3) protein on the cell surface (human); assay: immunohistochemistry on FFPE pellets of DPEP3-expressing HEK-293T cells, antibody at 10 ug/ml
[7] = biological target: hDPEP2 ECD with histidine tag (human) (UniProt Q9H4A9); assay: ELISA, coated antigen, antibody 1 ug/mL

Measured: binding

B1: SC34.83 (antibody, mouse IgG2a, V domains shown)
VH: QVQLQQSGAELVKPGASVKISCKASGYAFSHSWMNWVKQRPGKGLEWIGRIYPGDGDINYNGKFKGKATLTADKSSSTAYMQLSSLTSEDSAVYFCARRGPSYNNYCFDYWGQGTTLTVSS
VL: QIVLIQSPAIMSASPGENVTMTCSASSSVSYMHWYQQKSGTSPKRWIYDTSKLASGVPARFSGSGSGTSYSLTISSMEAEDAATYYCQQWNSYPPTFGAGTKLELK
binds: [1] | mDPEP3 | [2]

B2: SC34.58 mouse anti-DPEP3 antibody (antibody, V domains shown)
VH: QVQLQQSGAELARPGASVKLSCKASGYTFTSYGVNWVKQRTGQGLEWIGEIYPGRGDVYYNDNFKGKATLTTDKSSSTAYMQLSSLTSEDSAVYFCARVHDYGSWFPYWGQGTLVTVSA
VL: DIVMSQSPSSLAVSVGEKVTMSCKSSQSLLYSRNQKNYLAWYQQKPGQSPKLLIYWASTRESGVPDRFTGSGSGTDFTLTISSVKAEDLAVYYCHQHYRYPLTFGAGTKLELR
not listed: mDPEP3 | [2] | [7]
binds: all other assays above

B3: SC34.46 (antibody, mouse IgG1, V domains shown)
VH: QVQLQQSGTELARPGTSVKLSCKASGYTFRSYAISWVRQRTGQGLEWIGEIYPGSDKTYYNESLKGKVTLTTDKCSSTANMQLTSLTSEDSAVYFCARVHDYGSWFPYWGQGTLVTVSA
VL: B2 VL with R33K, N34Y, Y38F, S83N, H95Q, H97Y, K109T, R113K
binds: [1] | mDPEP3 | [2]

B4: SC34.14 (antibody, mouse IgG1, V domains shown)
VH: EVQLQQSGPEMVKPGASVKISCKASGYIFTDYYMHWVKQSHGESLDWIGRVNPKKGGTTYNQKFEGKAILTVDKSSSTAYMDLNSLTSEDSAVYYCAMGIYYSYDASFDYWGQGTTLTVSS
VL: DIQMTQAPASLSPSVGATVTITCRTSEHIYSYLAWYQQKQGKSPRLLVYNAKTLAEGVSSRFSGSGSGTQFSLQINSLQPEDFGNYYCQHHYDTPYTFGGGTKLEIK
binds: [7] | [3]

B5: SC34.48 (antibody, mouse IgG1, V domains shown)
VH: B4 VH with P9L, E43K, I69T, Y102F
VL: B4 VL with P13A, A17E, E27G, R45Q, Q74K, N76T, N85D
binds: [7] | [3]

Source: patent publication US20170029530A1
